# Measurements published in patent publication EP0081783B2 (Merck & Co., Inc., priority 1981, dated 1989).
# Assay: general procedure: Boc solid-phase peptide synthesis; BOC-Leu esterified to 2% cross-linked polystyrene-divinylbenzene; dicyclohexylcarbodiimide with 1-hydroxybenzotriazole hydrate
# Settings: for purity (crude or final not stated): late stage modification step, high performance liquid chromatography
Substance,"crude mass (whole synthesis, scale 6 mmol)",purity (crude or final not stated)
"Isobutyryi-L-histidyl-L-prolyl-L-phenylalanyl-L-histidyl-(3S,4S)-statyl-L-leucine methyl ester",1.4 g,
"Isobutyryl-L-hystidyl-I-prolyl-L-phenylalanyl-L-histidyl-(3S,4S)-statyl-L-leucine hydrazide",,over 99%
"N-isobutyryl-L-histidyl-L-prolyl-L-phenylalanyl-L-histidyl-(3S,4S)-statyl-L-leucylbenzylamide",,93.1%
